Assay results reported in PubChem BioAssay AID540276 (National Center for Advancing Translational Sciences (NCATS), 2011).
Where “and” joins values, the source holds several entries; their conditions need not be identical. Identical values can stand only once. Screen size: about 300,000 compounds; about 5,400 (1.8%) were called active. This list was built around the results that the source calls inconclusive (neither active nor inactive); the mix of calls is not that of the screen. Calls follow the shape of the full dose curve; tested in HEK293 cells. Potencies beside an inconclusive call are fits to weak or partial responses and may not hold up.

Assay: qHTS for inhibitors of binding or entry into cells for Marburg Virus
Conditions: Marburg virus pseudotyped entry inhibition, cell reporter; activity change, negative = inhibition: at 37.8 µM (top of the series) unless noted
% is scaled to controls: 0 for no effect and ±100 for the full control effect; potency is read from the fitted curve at half-maximal effect.

SMILES | activity change, negative = inhibition | Potency
CCN(CC)CC(=O)c1c[nH]c2ccccc12 | inactive: -5.25% | –
c1ccc(-c2oc3ncnc(NCCCn4ccnc4)c3c2-c2ccccc2)cc1 | – | inconclusive: 18.3 µM [inhibitor, single point]
Cc1ccc(-c2nnc(SCCOc3ccccc3)o2)cc1 | inactive: 3.54% [at 46.1 µM] | –
COc1ccc(C2CC(c3ccc(C)o3)=NN2C(C)=O)cc1 (stereo unspecified) | – | inconclusive: 11.2 µM [activator, partial curve, poor fit]
C/C(CC(=O)NC(C)(C)C)=N\NC(N)=S | – | inconclusive: 6.31 µM [inhibitor, single point]
CC1CCN(C(=O)CSc2c3c(nc4cc(Cl)ccc24)CCCC3)CC1 | – | inconclusive: 20 µM [activator, single point]
CCOc1ccc(-n2nc(CO)c(C(=O)NCc3ccc(Cl)cc3)n2)cc1 | inactive: 0.0056% [at 46.1 µM] | –
C/C(=N\NC(=S)NCCc1ccccc1)c1ccc(Cl)cc1Cl | – | inconclusive: 2.82 µM [inhibitor, partial curve, poor fit]
Cn1c(Cc2ccc3c(c2)OCO3)nnc1SCC(=O)N1CCc2ccccc2C1 | inactive: 8.11% | –
O=C(O)c1cccc(-c2nnn(Cc3ccccc3Cl)n2)c1 | – | active: 6.31 µM
COc1cc(OC)c(C2=NOC(C(=O)NCc3cccs3)C2)cc1Cl (stereo unspecified) | – | inconclusive: 1.12 µM [inhibitor, full curve, poor fit]
CCOC(=O)CC(NC(=O)c1cc2cc(Cl)ccc2oc1=O)c1ccc(C)cc1 (stereo unspecified) | inactive: -14.4% [at 46.1 µM] | –
Cc1cccc(C)c1NC(=O)c1nc(S(=O)(=O)Cc2ccccc2)ncc1Cl | – | active: 11.2 µM
COc1ccccc1N1CCN(c2ccc3cc(S(=O)(=O)N4CCCCC4)ccc3n2)CC1 | – | inconclusive: 8.91 µM [inhibitor, partial curve, poor fit]
Cc1ccc(-n2nc(-c3ccc(N)cc3)cc2N)cc1 | inactive: 1.25% | –
O=C(CN1C(=O)COc2ccc(Cl)cc21)Nc1nccs1 | – | inconclusive: 0.316 µM [activator, partial curve, poor fit]
COc1ccc2cc(C(=O)c3ccccc3)c(=O)oc2c1 | – | inconclusive: 2.91 µM [activator, full curve, poor fit]
COc1ccc(S(=O)(=O)N(CC(=O)Nc2cc(C)on2)Cc2ccccc2)cc1 | inactive: 6.3% | –
CCOC(=O)c1c(C)[nH]c(C2=NNC(=Nc3ccc(OCC)cc3)SC2)c1C | – | inconclusive: 2.51 µM [inhibitor, partial curve, poor fit]
CC(=O)NCCn1c(SCC(=O)NCCC(C)C)nc2ccccc2c1=O | – | inconclusive: 20.6 µM [activator, single point]
Nc1ccc2nc(CCCCCCc3nc4ccc(N)cc4[nH]3)[nH]c2c1 | – | inconclusive: 7.08 µM [activator, partial curve, poor fit]
COC(=O)CC=C1c2ccc3c(c2[C@@H](OC)[C@@H]1C)OCO3 | – | inconclusive: 1.19 µM [activator, single point] and inconclusive: 1.19 µM [inhibitor, single point]

SMILES | activity change, negative = inhibition | Potency
NC(=O)c1ccccc1NC(=O)Nc1cccc(Cl)c1 | inactive: 5.26% | –
COc1ccc2[nH]c(C)c(C(=O)CN3CCOCC3)c2c1 | inactive: 1.36% | –
Cc1[nH]c2ccccc2c1C(=O)/C=C/c1ccccc1Cl | – | inconclusive: 6.51 µM [activator, single point]
CC1=CC2OC3CC4OC(=O)C=CC=CC(C(C)O)OCC(O)C5(C)OC5C(=O)OCC2(CC1O)C4(C)C31CO1 (stereo unspecified) | – | inconclusive: 0.1 µM [inhibitor, full curve, poor fit]
CCCCc1nc2ccccc2c(NC(=O)CNC(C)(C)C)c1CCC | inactive: 2.27% [at 46.1 µM] | –
CCn1c(CC(=O)Nc2cccc(OC)c2)nnc1SCC(=O)N1CCN(c2ccccc2)CC1 | – | inconclusive: 29.1 µM [inhibitor, single point]
CCOc1ccc(C2=C(C=C(C#N)C#N)C(c3ccccc3)c3ccccc3O2)cc1 (stereo unspecified) | inactive: -13.9% | –
Cc1ccc(C)c(Cn2c3ccccc3c3cnn(CC(=O)NCCCN4CCOCC4)c(=O)c32)c1 | – | inconclusive: 35.5 µM [inhibitor, single point]
CCOc1cc(C(=O)Nc2ccc(S(=O)(=O)NC3=NCCCCC3)cc2)cc(Br)c1OC | – | inconclusive: 22.4 µM [inhibitor, partial curve, poor fit]
Cc1nn(C)cc1/C=C/C(=O)c1ccccc1 | – | inconclusive: 18.3 µM [activator, partial curve, poor fit]
Cc1ccc(S(=O)(=O)N2CCN(C(=O)C3CSC4(C)CCC(=O)N34)CC2)cc1C (stereo unspecified) | – | inconclusive: 7.08 µM [activator, full curve, poor fit]
O=C1CCCc2nc3c(cc21)C(O)Oc1c-3ccc2ccccc12 (stereo unspecified) | inactive: -10.2% | –
CCC(CC)C(=O)Nc1c(C(=O)N2CCN(c3ccccc3F)CC2)oc2ccccc12 | – | inconclusive: 11.2 µM [inhibitor, partial curve, poor fit]
O=[N+]([O-])c1ccc(S(=O)(=O)N2CCC3(CC2)OCCN3S(=O)(=O)c2cccs2)cc1 | – | inconclusive: 0.112 µM [inhibitor, full curve]
O=[N+]([O-])c1cc([N+](=O)[O-])c2oc(-c3ccccc3)c(Br)c2c1O | – | inconclusive: 35.5 µM [inhibitor, single point]
O=C(OCc1cn([C@H]2CN(C(=O)C3CCCCC3)[C@@H](c3ccccc3)C[C@H]2O)nn1)c1ccccc1 | – | inconclusive: 0.0499 µM [inhibitor, full curve, poor fit]
CCN(Cc1cnn(C)c1)C(=O)CC1C(=O)NCCN1Cc1cccc(OC)c1OC (stereo unspecified) | – | inconclusive: 3.55 µM [activator, single point]
COC(=O)c1c(-c2cccs2)csc1NC(=O)CN1CCOCC1 | – | inconclusive: 12.6 µM [inhibitor, single point]
O=C(c1cccc(S(=O)(=O)N2CCCCC2)c1)N1CCN(c2ccccc2)CC1 | inactive: -15.6% | –
COc1ccc(N2CCN(CCCNC(=O)Nc3ccccc3Cl)CC2)cc1 | – | inconclusive: 15.8 µM [inhibitor, single point]
O=C(Nc1ccccc1C(F)(F)F)c1c(F)cccc1Cl | inactive: 5.12% | –
COc1cc2c(cc1OC)C1=NC(=O)CN1C(SCc1ccc(C)cc1)=N2 | – | inconclusive: 6.31 µM [inhibitor, partial curve, poor fit]

SMILES | activity change, negative = inhibition | Potency
C=C(C)CSc1nnc([C@@H]2CCCN2)o1 | inactive: -11.4% | –
Cc1cc(C(=O)CSc2n[nH]c(N)n2)c(C)n1-c1ccc2c(c1)OCO2 | – | inconclusive: 2.82 µM [inhibitor, single point]
Oc1cc2c(cc1O)[C@H]1c3ccccc3CN[C@H]1CC2 | – | active: 15.8 µM
CCC(Oc1ccccc1)C(=O)Nc1ccccc1C(=O)N1CCCCC1 (stereo unspecified) | – | active: 11.2 µM
O=C(N/N=C/c1cc(Cl)ccc1O)C(=O)Nc1ccccc1OC(F)(F)C(F)F | – | inconclusive: 1.84 µM [inhibitor, full curve, poor fit]
CCCOc1ccc(C(=O)N2CCCc3ccccc32)cc1 | – | inconclusive: 0.0411 µM [inhibitor, full curve, poor fit]
COc1ccc(CCNc2cc(C)nc3c(-c4ccccc4)c(C)nn23)cc1OC | inactive: -35.9% | –
CC1=CC(=C(C#N)c2nc3ccccc3s2)C=C(C)N1CC1CCCO1 (stereo unspecified) | – | inconclusive: 25.1 µM [inhibitor, single point]
CCCCN1C2=NC(c3ccccc3)CN2c2ccccc21 (stereo unspecified) | – | inconclusive: 17.8 µM [inhibitor, partial curve, poor fit]
COc1ccc(S(=O)(=O)N2Cc3ccccc3CC2C(=O)Nc2nccs2)cc1 (stereo unspecified) | – | inconclusive: 4.11 µM [activator, single point]
OC(CN1CCN(Cc2ccc3c(c2)OCO3)CC1)c1c[nH]c2ccccc12 (stereo unspecified) | inactive: -28% | –
CCCc1cc(=O)oc2c(C)c(OCC(=O)NCCCn3ccnc3)ccc12 | inactive: 9.36% [at 46.1 µM] | –
Cc1ccc2cc(CN(C)S(C)(=O)=O)c(=O)[nH]c2c1 | – | inconclusive: 6.31 µM [inhibitor, single point]
CCOC(=O)c1ccc(NC(=O)CN(c2ccc(C)cc2)S(=O)(=O)c2ccc(OC)cc2)cc1 | – | inconclusive: 12.6 µM [inhibitor, partial curve, poor fit]
CCOC(=O)N1CCN(c2nc(-c3ccco3)cc(C(F)(F)F)n2)CC1 | inactive: 7.33% | –
O=C(C1CCN(Cc2ccc(Cl)cc2)CC1)N1CCN(C(c2ccccc2)c2ccccc2)CC1 | – | inconclusive: 10 µM [inhibitor, partial curve, poor fit]
CN(C)S(=O)(=O)c1ccc2c(c1)c(=O)c(C(=O)N1CCN(c3cccc(Cl)c3)CC1)cn2C | – | inconclusive: 6.31 µM [inhibitor, partial curve, poor fit]
CCCN(CCC)CCCNC(=O)C(NS(=O)(=O)c1ccc2c(c1)CCC(=O)N2)c1ccccc1 (stereo unspecified) | – | inconclusive: 1.12 µM [inhibitor, full curve, poor fit]
Cc1c(C(=O)N(Cc2cccc(Br)c2)C2CCS(=O)(=O)C2)oc2ccc(F)cc12 (stereo unspecified) | – | inconclusive: 10 µM [inhibitor, single point]
CCOc1ccc(NC(=O)CN(C)S(=O)(=O)c2ccc3c(c2)c(=O)n(C)c(=O)n3C)cc1 | inactive: -24.8% [at 46.1 µM] | –
COc1cc(/C=C2\SC(=Nc3ccc(N4CCOCC4)cc3)N(C)C2=O)ccc1OC(C)C(=O)O (stereo unspecified) | – | inconclusive: 35.5 µM [activator, single point]
Cc1ccc(CNC(=O)CSCc2ccccc2F)cc1 | – | inconclusive: 1.12 µM [inhibitor, single point]
